Measurements reported in the supplement of paper PMC12067093, “Discovery and optimisation of a covalent ligand for TRIM25 and its application to targeted protein ubiquitination” (Chemical Science, 2025).
The list shows a part of the results.

Amino acid sequences for entries named in this document (tags omitted). A change or cut given only in a name is not applied to a line headed by its entry.
UniProt Q9BV73: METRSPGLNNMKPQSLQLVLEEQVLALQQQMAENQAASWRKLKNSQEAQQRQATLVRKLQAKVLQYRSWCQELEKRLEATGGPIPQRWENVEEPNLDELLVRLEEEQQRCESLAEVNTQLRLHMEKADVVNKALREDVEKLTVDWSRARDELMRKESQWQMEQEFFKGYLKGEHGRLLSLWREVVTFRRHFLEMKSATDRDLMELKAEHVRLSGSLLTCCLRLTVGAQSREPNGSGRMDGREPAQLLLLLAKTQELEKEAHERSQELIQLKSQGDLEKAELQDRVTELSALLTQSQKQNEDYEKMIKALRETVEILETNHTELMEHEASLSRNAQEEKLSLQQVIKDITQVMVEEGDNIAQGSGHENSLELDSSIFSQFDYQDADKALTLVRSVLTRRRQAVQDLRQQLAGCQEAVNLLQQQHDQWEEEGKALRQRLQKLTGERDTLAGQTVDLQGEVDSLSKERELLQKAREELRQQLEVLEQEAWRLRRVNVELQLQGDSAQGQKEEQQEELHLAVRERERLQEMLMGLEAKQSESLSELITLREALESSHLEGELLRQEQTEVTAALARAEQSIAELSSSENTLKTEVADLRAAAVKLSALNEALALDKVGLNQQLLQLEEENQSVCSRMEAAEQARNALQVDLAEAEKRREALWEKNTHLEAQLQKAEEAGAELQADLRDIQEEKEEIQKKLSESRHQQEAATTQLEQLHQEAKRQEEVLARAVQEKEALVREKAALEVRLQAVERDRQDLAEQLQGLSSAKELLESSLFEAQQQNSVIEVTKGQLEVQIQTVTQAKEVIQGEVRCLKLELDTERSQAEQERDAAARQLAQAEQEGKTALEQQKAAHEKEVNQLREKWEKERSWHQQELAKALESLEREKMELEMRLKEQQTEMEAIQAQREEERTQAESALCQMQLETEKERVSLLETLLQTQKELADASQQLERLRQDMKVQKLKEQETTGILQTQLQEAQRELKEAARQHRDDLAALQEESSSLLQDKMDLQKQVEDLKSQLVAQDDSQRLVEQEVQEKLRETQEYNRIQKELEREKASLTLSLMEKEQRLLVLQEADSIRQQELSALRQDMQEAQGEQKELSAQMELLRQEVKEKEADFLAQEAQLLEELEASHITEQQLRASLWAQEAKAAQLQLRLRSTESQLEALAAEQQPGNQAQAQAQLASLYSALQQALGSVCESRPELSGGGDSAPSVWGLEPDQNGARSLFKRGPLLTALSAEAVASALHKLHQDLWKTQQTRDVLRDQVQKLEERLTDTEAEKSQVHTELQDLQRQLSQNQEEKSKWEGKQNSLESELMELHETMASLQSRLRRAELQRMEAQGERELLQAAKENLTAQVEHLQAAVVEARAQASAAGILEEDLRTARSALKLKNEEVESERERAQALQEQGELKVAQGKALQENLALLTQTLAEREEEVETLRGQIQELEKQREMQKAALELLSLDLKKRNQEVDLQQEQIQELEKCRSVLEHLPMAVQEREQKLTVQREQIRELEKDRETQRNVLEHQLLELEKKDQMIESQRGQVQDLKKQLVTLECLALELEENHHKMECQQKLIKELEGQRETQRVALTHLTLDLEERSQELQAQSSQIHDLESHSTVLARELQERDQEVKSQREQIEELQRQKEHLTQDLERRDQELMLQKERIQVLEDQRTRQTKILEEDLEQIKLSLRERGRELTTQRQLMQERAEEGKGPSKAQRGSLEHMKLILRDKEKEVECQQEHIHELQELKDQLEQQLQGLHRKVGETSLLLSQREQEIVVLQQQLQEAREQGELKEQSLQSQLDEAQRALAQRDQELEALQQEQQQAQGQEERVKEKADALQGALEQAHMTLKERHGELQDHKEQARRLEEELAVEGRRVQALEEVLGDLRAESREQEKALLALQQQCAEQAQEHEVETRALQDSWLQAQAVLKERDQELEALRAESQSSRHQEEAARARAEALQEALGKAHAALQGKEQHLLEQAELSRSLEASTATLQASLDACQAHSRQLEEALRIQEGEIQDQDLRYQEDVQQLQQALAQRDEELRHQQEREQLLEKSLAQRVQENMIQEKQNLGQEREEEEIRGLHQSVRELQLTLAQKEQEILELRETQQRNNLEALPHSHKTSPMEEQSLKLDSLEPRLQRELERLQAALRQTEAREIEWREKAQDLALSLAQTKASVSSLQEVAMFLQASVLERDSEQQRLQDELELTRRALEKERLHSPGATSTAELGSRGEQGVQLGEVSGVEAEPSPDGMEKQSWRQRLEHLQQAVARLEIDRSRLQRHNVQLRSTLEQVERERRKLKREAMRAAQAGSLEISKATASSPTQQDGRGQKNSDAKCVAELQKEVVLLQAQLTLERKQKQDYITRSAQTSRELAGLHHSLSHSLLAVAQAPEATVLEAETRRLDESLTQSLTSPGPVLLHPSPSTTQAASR
UniProt Q5VT25: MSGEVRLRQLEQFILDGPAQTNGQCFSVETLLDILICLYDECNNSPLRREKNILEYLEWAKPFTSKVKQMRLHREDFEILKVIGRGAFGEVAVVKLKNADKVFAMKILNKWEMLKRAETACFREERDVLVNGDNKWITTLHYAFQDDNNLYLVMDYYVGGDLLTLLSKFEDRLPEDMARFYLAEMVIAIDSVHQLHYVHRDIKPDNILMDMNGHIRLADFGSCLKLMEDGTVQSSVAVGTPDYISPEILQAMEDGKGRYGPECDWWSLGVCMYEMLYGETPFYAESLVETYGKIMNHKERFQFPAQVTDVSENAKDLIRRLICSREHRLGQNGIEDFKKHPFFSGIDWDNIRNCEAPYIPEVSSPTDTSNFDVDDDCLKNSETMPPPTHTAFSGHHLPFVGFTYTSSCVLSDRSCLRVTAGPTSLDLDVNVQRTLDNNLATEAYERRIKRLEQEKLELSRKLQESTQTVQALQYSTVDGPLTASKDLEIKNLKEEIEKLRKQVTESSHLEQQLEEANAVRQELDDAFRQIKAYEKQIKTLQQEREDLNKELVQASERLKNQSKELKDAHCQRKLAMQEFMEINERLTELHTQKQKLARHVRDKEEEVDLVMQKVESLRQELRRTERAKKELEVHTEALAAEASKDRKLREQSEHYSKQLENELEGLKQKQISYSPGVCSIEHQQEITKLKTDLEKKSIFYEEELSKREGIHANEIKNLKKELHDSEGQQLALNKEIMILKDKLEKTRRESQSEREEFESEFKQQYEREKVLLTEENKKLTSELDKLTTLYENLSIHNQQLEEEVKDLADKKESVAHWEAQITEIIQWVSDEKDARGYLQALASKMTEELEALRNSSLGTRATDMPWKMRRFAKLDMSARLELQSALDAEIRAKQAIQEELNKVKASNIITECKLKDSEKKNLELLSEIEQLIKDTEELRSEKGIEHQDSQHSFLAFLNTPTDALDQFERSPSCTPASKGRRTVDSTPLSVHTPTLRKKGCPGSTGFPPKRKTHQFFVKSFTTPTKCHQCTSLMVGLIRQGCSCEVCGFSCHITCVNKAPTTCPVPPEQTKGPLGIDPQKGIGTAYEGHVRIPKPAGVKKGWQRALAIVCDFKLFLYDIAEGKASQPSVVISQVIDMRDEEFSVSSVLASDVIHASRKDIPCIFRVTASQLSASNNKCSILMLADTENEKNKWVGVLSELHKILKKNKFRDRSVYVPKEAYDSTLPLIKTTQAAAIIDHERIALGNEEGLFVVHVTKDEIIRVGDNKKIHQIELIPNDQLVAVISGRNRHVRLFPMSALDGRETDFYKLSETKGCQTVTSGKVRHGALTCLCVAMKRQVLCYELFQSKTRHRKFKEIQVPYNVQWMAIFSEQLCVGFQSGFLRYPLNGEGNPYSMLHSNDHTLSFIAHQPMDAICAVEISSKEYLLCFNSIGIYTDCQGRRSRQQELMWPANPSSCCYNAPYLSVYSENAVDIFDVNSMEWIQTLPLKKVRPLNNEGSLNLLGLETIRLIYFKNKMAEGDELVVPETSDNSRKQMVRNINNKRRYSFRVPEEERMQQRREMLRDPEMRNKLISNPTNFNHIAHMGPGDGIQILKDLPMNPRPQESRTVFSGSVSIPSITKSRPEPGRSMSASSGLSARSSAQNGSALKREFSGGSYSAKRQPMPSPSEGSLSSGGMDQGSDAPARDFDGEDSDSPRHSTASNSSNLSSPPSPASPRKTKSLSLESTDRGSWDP
UniProt P50990: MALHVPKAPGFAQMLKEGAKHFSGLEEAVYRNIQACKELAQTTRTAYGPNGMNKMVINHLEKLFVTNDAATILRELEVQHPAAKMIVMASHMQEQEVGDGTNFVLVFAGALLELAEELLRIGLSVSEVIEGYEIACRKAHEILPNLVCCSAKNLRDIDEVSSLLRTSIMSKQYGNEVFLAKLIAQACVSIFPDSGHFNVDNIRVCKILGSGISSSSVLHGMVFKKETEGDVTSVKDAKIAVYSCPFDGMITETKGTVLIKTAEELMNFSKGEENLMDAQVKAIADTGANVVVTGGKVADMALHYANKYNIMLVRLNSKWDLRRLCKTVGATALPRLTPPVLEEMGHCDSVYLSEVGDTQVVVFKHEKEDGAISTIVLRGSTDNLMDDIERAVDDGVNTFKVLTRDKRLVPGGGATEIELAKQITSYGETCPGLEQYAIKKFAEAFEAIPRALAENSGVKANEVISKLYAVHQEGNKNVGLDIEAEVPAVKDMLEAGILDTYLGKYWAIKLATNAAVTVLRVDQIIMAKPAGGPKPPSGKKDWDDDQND
UniProt O75419: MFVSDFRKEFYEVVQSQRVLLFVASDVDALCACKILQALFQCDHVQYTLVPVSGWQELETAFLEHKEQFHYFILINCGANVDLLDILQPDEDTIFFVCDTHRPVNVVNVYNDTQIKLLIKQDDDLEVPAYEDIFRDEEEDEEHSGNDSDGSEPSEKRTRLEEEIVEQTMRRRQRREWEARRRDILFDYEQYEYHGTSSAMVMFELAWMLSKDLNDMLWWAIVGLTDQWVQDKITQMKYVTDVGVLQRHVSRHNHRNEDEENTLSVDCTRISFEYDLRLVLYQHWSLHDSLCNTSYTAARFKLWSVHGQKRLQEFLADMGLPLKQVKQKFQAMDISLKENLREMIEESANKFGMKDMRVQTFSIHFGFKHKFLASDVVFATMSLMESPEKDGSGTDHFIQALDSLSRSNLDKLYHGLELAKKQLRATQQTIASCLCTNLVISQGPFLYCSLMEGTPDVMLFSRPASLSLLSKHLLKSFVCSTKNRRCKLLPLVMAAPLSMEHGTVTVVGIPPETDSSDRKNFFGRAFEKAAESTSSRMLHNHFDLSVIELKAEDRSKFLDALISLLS
UniProt Q9UJX2, whole entry, looked up: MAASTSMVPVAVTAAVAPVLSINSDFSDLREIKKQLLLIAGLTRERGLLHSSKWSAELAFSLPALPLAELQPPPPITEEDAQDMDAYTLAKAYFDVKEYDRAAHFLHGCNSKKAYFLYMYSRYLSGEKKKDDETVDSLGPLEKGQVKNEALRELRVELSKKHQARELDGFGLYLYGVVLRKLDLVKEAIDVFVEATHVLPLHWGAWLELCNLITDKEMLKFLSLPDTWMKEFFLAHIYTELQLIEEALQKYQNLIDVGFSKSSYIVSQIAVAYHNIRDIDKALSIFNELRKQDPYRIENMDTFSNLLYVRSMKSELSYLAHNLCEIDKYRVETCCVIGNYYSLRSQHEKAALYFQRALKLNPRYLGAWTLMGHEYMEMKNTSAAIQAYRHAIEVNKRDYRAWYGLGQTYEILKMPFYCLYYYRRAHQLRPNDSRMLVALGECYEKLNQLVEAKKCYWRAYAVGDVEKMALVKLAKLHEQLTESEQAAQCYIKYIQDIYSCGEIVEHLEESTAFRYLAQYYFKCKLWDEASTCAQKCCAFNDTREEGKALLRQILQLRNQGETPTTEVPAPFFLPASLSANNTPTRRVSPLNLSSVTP
UniProt Q13042, whole entry, looked up: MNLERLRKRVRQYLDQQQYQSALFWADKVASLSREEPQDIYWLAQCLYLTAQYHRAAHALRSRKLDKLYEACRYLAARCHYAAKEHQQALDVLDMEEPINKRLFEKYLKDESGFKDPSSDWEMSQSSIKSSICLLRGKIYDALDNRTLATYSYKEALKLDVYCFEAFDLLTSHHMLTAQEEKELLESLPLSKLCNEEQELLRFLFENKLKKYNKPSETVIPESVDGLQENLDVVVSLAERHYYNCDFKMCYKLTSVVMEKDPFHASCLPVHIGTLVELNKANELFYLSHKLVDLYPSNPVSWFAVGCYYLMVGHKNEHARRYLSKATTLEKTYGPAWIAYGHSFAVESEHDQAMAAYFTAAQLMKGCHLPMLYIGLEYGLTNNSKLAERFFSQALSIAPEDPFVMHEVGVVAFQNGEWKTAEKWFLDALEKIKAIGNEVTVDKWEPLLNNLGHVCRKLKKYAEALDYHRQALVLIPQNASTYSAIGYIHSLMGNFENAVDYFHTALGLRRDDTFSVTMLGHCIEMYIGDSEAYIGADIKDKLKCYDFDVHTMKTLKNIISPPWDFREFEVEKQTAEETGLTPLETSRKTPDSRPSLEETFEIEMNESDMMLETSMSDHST

Compound: CC1Cc2ccccc2N1C(=O)C1CCCN(C1)C(=O)CCl (mixture of isomers) [TRIM25 ligand 11 (diastereomer mixture)]
Experiment: probe-labelled cysteine peptide fold change vs DMSO (competition) (log2 fold change); higher = less target engagement (more negative = stronger competition)
Details: THP-1, incubation time: 4 h
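Also: competitive chemoproteomic profiling in live THP-1 cells with an iodoacetamide desthiobiotin (IA-DTB) probe, comparing probe-labelled peptide intensities in compound-treated cells against DMSO-treated controls.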

| Target | probe-labelled cysteine peptide fold change (10 µM) | probe-labelled cysteine peptide fold change (50 µM) |
| --- | --- | --- |
| CENPF_P49454_1291_YISGPHELSTSQNDNAHLQCSLQTTMNK (UniProt P49454) | -0.0647 | -0.249 |
| CDAN1_Q8IWY9_1017_ACEHHAPLPSHLISEIK (UniProt Q8IWY9) | 0.018 | 0.0953 |
| CDK6_Q00534_15_ADQQYECVAEIGEGAYGK (UniProt Q00534) | -0.0925 | -0.233 |
| CENPF_P49454_752_CYQDLHAEYESLRDLLK (UniProt P49454) | -0.0592 | -0.0479 |
| CELF1_Q92879_150_GCAFVTFTTR (UniProt Q92879) | 0.0515 | 0.134 |
| CCT7_Q99832_310_LPIGDVATQYFADRDMFCAGRVPEEDLKR (UniProt Q99832) | -0.506 | -0.303 |
| CDC27_P30260_115+126_SHDDIVTEFGDSACFTLSLLGHVYCK (UniProt P30260) | 0.166 | 0.036 |
| CEP250_Q9BV73_1740_EVECQQEHIHELQELK (UniProt Q9BV73) | -0.267 | -0.154 |
| CEP350_Q5VT06_211_FLNDRPAIDALQNSECLIR (UniProt Q5VT06) | -0.138 | -0.243 |
| CD38_P28907_254_DLCQDPTIK (UniProt P28907) | 0.18 | 0.0354 |
| CDC42BPA_Q5VT25_121_AETACFR (UniProt Q5VT25) | 0.369 | 0.236 |
| CCT7_Q99832_450_QLCDNAGFDATNILNK (UniProt Q99832) | 0.0363 | 0.0425 |
| CDK4_P11802_215_RKPLFCGNSEADQLGK (UniProt P11802) | -0.0231 | 0.0621 |
| CELF2_O95319_161_VMFSPFGQIEECR (UniProt O95319) | -0.0884 | -0.00434 |
| CCT8_P50990_244_IAVYSCPFDGMITETK (UniProt P50990) | -0.0213 | -0.156 |
| CD81_P60033_175_NNLCPSGSNIISNLFK (UniProt P60033) | 0.0204 | -0.0136 |
| CDCA7L_Q96GN5_383_GQFCGPCLR (UniProt Q96GN5) | 0.0119 | -0.036 |
| CDC27_P30260_673_ALDINPQSSVLLCHIGVVQHALK (UniProt P30260) | 0.078 | 0.134 |
| CCT7_Q99832_326_TMMACGGSIQTSVNALSADVLGR (UniProt Q99832) | -0.0121 | -0.141 |
| CDC45_O75419_267_NEDEENTLSVDCTR (UniProt O75419) | 0.077 | 0.0608 |
| CDC27_P30260_179+184_FTSLQNFSNCLPNSCTTQVPNHSLSHR (UniProt P30260) | -0.0465 | -0.046 |

Full records, quoted from the list. Values in the order: probe-labelled cysteine peptide fold change (10 µM)	probe-labelled cysteine peptide fold change (50 µM)
CEP350_Q5VT06_211_FLNDRPAIDALQNSECLIR (UniProt Q5VT06) in the list: -0.138	-0.243
CDAN1_Q8IWY9_1017_ACEHHAPLPSHLISEIK (UniProt Q8IWY9) in the list: 0.018	0.0953
CDC42BPA_Q5VT25_121_AETACFR (UniProt Q5VT25) in the list: 0.369	0.236

More entries

| Target | probe-labelled cysteine peptide fold change (10 µM) | probe-labelled cysteine peptide fold change (50 µM) |
| --- | --- | --- |
| CEP350_Q5VT06_2910_RVTQQPCETLLAVPHTAEEVEILVHNAAEELWK (UniProt Q5VT06) | 0.158 | -0.0928 |
| CEP152_O94986_1167_DLCCGHCFQELEK (UniProt O94986) | -0.0593 | 0.0339 |
| CCT8_P50990_148_KAHEILPNLVCCSAK (UniProt P50990) | -0.218 | -0.2 |
| CCT7_Q99832_310_DMFCAGR (UniProt Q99832) | 0.179 | 0.0711 |
| CEP192_Q8TEP8_272_QANENGSLNCK (UniProt Q8TEP8) | -0.0492 | -0.283 |
| CCT6A_P40227_233_KRVEDAYILTCNVSLEYEK (UniProt P40227) | -0.191 | -0.0734 |
| CEP192_Q8TEP8_352_GIVPDLNSECASK (UniProt Q8TEP8) | 0.00919 | -0.208 |
| CDK4_P11802_135_GLDFLHANCIVHR (UniProt P11802) | 0.0386 | 0.0843 |
| CDC27_P30260_126_SHDDIVTEFGDSACFTLSLLGHVYCK (UniProt P30260) | 0.022 | -0.0367 |
| CDC23_Q9UJX2_489_LHEQLTESEQAAQCYIK (UniProt Q9UJX2) | 0.0631 | 0.0348 |
| CENPC_Q03188_472_NMEEHEEMGNDCVSK (UniProt Q03188) | 0.194 | 0.211 |
| CEP164_Q9UPV0_437_ISEHLLDVDVLSPVLGGACR (UniProt Q9UPV0) | 0.16 | 0.047 |
| CDC45_O75419_267_HNHRNEDEENTLSVDCTR (UniProt O75419) | 0.198 | 0.147 |
| CDKN2C_P42773_141_GDTACDLAR (UniProt P42773) | 0.0352 | 0.106 |
| CENPF_P49454_752_CYQDLHAEYESLR (UniProt P49454) | -0.0639 | 0.0586 |
| CEP97_Q8IW35_34_LGPNLPCEADIHTLILDK (UniProt Q8IW35) | 0.0724 | 0.148 |
| CDK8_P49336_25_VEDLFEYEGCK (UniProt P49336) | -0.0464 | -0.167 |
| CDKAL1_Q5VV42_109_ITENASDADLWLLNSCTVK (UniProt Q5VV42) | 0.178 | 0.141 |
| CDC16_Q13042_544_CYDFDVHTMK (UniProt Q13042) | -0.158 | -0.0934 |
| CD70_P32970_8_PEEGSGCSVR (UniProt P32970) | -0.115 | -0.0805 |
| CDPF1_Q6NVV7_7_ASHVECR (UniProt Q6NVV7) | -0.0171 | 0.247 |

| Target | probe-labelled cysteine peptide fold change (10 µM) | probe-labelled cysteine peptide fold change (50 µM) |
| --- | --- | --- |
| CCT8_P50990_148+149_AHEILPNLVCCSAK (UniProt P50990) | 0.0728 | 0.0614 |
| CDC20_Q12834_364_AVAWCPWQSNVLATGGGTSDR (UniProt Q12834) | 0.0333 | -0.119 |
| CENPF_P49454_1188_NQCNFKPQMDLEVK (UniProt P49454) | -0.136 | -0.225 |
| CDK5RAP3_Q96JB5_68_INAAIQDMPESEEIAQLLSGSYIHYFHCLR (UniProt Q96JB5) | 0.161 | 0.169 |
| CENPF_P49454_1790_HDVHQICDK (UniProt P49454) | -0.11 | -0.217 |
| CCT6A_P40227_508_QLLHSCTVIATNILLVDEIMR (UniProt P40227) | 0.0744 | 0.13 |
| CDK5RAP2_Q96SN8_434_SKGDCTIR (UniProt Q96SN8) | -0.0751 | 0.121 |
| CENPP_Q6IPU0_147_LSSAVTDLNIIMEPTECSELSEFVSR (UniProt Q6IPU0) | -0.0616 | -0.104 |
| CD40_P25942_111_GTSETDTICTCEEGWHCTSEACESCVLHR (UniProt P25942) | -0.0143 | 0.305 |
| CCT7_Q99832_310_LPIGDVATQYFADRDMFCAGR (UniProt Q99832) | -0.261 | -0.14 |
| CD2BP2_O95400_234_GLGCQTLGPHNPTPPPSLDMFAEELAEEELETPTPTQR (UniProt O95400) | 0.287 | -0.217 |
| CD300LF_Q8TDQ1_264_EDISYASLTLGAEDQEPTYCNMGHLSSHLPGR (UniProt Q8TDQ1) | 0.0559 | 0.0308 |
| CD109_Q6YHK3_1302_ENKDDLNHVDLNVCTSFSGPGR (UniProt Q6YHK3) | -0.0621 | -0.183 |
| CD38_P28907_82_HVDCQSVWDAFK (UniProt P28907) | 0.0635 | 0.101 |
| CERS6_Q6ZMG9_380_NPHTATTTNGTSGTNGYLLTGSCSMDD (UniProt Q6ZMG9) | 0.168 | -0.402 |
| CENPF_P49454_1233_ECLQHELQTIR (UniProt P49454) | -0.0765 | 0.0395 |
| CEP55_Q53EZ4_359_VALLEQQMQACTLDFENEK (UniProt Q53EZ4) | -0.00735 | 0.0446 |
| CENPF_P49454_621_TLFSCWK (UniProt P49454) | 0.115 | 0.119 |
| CDKN2C_P42773_141_NHKGDTACDLAR (UniProt P42773) | -0.104 | -0.0111 |
| CEP128_Q6ZU80_433_EIQNHFDTCEAER (UniProt Q6ZU80) | 0.0892 | 0.0924 |
| CDC42_P60953_105_WVPEITHHCPK (UniProt P60953) | -0.0221 | 0.0288 |

| Target | probe-labelled cysteine peptide fold change (10 µM) | probe-labelled cysteine peptide fold change (50 µM) |
| --- | --- | --- |
| CEP250_Q9BV73_110_CESLAEVNTQLR (UniProt Q9BV73) | -0.0431 | -0.0759 |
| CCT5_P48643_253_IAILTCPFEPPKPK (UniProt P48643) | -0.0215 | 0.0472 |
| CENPF_P49454_2961_YCSLLISHEK (UniProt P49454) | -0.0919 | -0.0693 |
| CEP152_O94986_1019_ETELQTCLDQSR (UniProt O94986) | -0.00967 | 0.148 |
| CD276_Q5ZPR3_383_DLRPGDTVTITCSSYR (UniProt Q5ZPR3) | 0.0574 | 0.215 |
| CDC23_Q9UJX2_500_YIQDIYSCGEIVEHLEESTAFR (UniProt Q9UJX2) | 0.00317 | -0.14 |
| CDK14_O94921_402_LLQCSPK (UniProt O94921) | -0.179 | 0.0408 |
| CDR2_Q01850_432_EIFSCIK (UniProt Q01850) | -0.0611 | 0.237 |
| CCT7_Q99832_364_YNFFTGCPK (UniProt Q99832) | -0.0181 | -0.0808 |
| CD97_P48960_513_GGHWATEGCQVLGSK (UniProt P48960) | 0.104 | -0.0514 |
| CCT5_P48643_181_VVNSCHR (UniProt P48643) | 0.109 | 0.0213 |
| CDCA2_Q69YH5_790_DCHCLGDVLIENTK (UniProt Q69YH5) | -0.0355 | -0.258 |
| CEP152_O94986_791_TLDCGSQTDQVTTSDVISK (UniProt O94986) | -0.00933 | -0.209 |
| CD33_P20138_325_LHGPTETSSCSGAAPTVEMDEELHYASLNFHGMNPSK (UniProt P20138) | -0.0389 | -0.271 |
| CDC16_Q13042_194_LCNEEQELLR (UniProt Q13042) | 0.144 | -0.0536 |
| CENPM_Q9NSP4_98_VCFLATGAGR (UniProt Q9NSP4) | -0.0713 | 0.1 |
| CEP85_Q6P2H3_527_VTELESLLEETQAICR (UniProt Q6P2H3) | 0.0472 | 0.122 |
| CENPF_P49454_1264_DCEIDAEEK (UniProt P49454) | -0.135 | -0.205 |
| CENPU_Q71F23_239_AIGSDTSDIVHIWCPEGMK (UniProt Q71F23) | 0.147 | -0.127 |
| CEP131_Q9UPN4_218_AATCEGSESSGFGK (UniProt Q9UPN4) | 0.0246 | -0.156 |

3 entries drawn at random from those above, as already listed:

| Target | probe-labelled cysteine peptide fold change (10 µM) | probe-labelled cysteine peptide fold change (50 µM) |
| --- | --- | --- |
| CDC45_O75419_267_NEDEENTLSVDCTR (UniProt O75419) | 0.077 | 0.0608 |
| CEP250_Q9BV73_1740_EVECQQEHIHELQELK (UniProt Q9BV73) | -0.267 | -0.154 |
| CELF1_Q92879_150_GCAFVTFTTR (UniProt Q92879) | 0.0515 | 0.134 |
